{"source": "patent US8466089B2", "about": "“Pyrazole compounds, process for their production and herbicides containing them” (Ishihara Sangyo Kaisha, Ltd., priority 2008, dated 2013)"}
{"system": "sorgo (Sorghum bicolor Moench) (var.: Lucky Sorgo)", "experiment": "Test Example 6, soil column downward movement, sorgo bioassay", "type": "in vivo", "details": "250 g/ha, water dropped 400 mL/hr for about 3 hours", "protocol": "Soil (sterilized soil:sand=3:1) was packed (4 L) into a column (9.5 cm in diameter×40 cm in height, application area: 0.007 m^2), and tap water was dropped from above by a Peristaltic pump before application of the herbicide for the purpose of maintaining the soil moisture to be uniform. Then, 10 mL of a spray solution prepared so that each agent (Compound No. 2-1, the above Reference Compounds 1 and 2) would be at a concentration corresponding to 250 g/ha was dropwise applied by a pipette. After application, water was dropped again at a rate of 400 mL/hr for about 3 hours by means of a Peristaltic pump. After the dropping, the column was left to stand for 1 day, and then the column was vertically evenly divided and seeds of sorgo (Sorghum bicolor Moench) (var.: Lucky Sorgo) were sown in a row. On the 14th day after sowing, the state of growth of the plant was visually observed at 3 cm intervals from the application point of the agent, whereby the germination and the degree of growth were evaluated by a growth inhibition rate (%) of 0 (equivalent to the non-treated area) to 100% (complete kill) to obtain the results in Table 17.\nFrom the above results, the growth inhibition rates of Reference Compounds No. 1 and No. 2 are observed in depths deeper than that of Compound No. 2-1. […] Whereas, Compound No. 2-1 stayed at a shallow portion of soil (in a layer of from 0 to 9 cm)."}
{"smiles": "CCn1ncc(C(=O)c2ccc(S(C)(=O)=O)c(OCCOC)c2C)c1OC(C)OC(=O)OC", "note": "(stereo not drawn) [Compound No. 2-1, 1-(1-Ethyl-4-(3-(2-methoxyethoxy)-2-methyl-4-(methylsulfonyl)benzoyl)-1H-pyrazol-5-yloxy)ethyl methyl carbonate]", "downward movement of the active ingredient in soil": "scarcely moved downward"}
{"smiles": "CCn1ncc(C(=O)c2ccc(S(C)(=O)=O)c(OCCOC)c2Cl)c1O", "note": "[Reference Compound 1]", "downward movement of the active ingredient in soil": "moved to deeper depths"}
{"smiles": "COCCOc1c(S(C)(=O)=O)ccc(C(=O)c2cnn(C(C)C)c2O)c1Cl", "note": "[Reference Compound 2]", "downward movement of the active ingredient in soil": "moved to deeper depths"}
